Measurements: patent US20250382369A1 (UCL BUSINESS, published 2025)
Results are given in words; binding and its absence hold for the method and conditions named. Binding can be weak; no strength is given.

B1: TE9 chimeric human IgG1 full antibody (antibody, V domains shown)
VH: QVQLQQSGAALVKPGTSVKLSCKASGYTFTSYWMHWVKQRPGQGLEWIGMIHPKSGSVDYNEKFTNKATLTGDKSSGTAYMQLSSLTSEDSAVYYCARGGYGSPFDYWGQGTTVTVSS
VL: ENVLTQSPAIMSASPGEKVTMTCSASSSVSYMYWYQQKPGSSPRLLIYRTSNLASGVPARFSGSGSGTSYSLTISSMEAEDAATYYCQQWSSNPPTFGGGTKLEIK
notes: Chimeric antibody, mouse variable domains cloned into full human IgG1; also called TE9 antibody; TE9 whole antibody
B2: TC6 chimeric human IgG1 full antibody (antibody, V domains shown)
VH: QVKLQESGAELVKPGASVKLSCKASGYTFTSYWIHWVKQRPGQGLEWIGMIHPKSGSINYNEKFRSKATLTVDKSSSTAYMQLSRLTSEDSAVYFCASGGYGSSLDYWGQGTTVTVSS
VL: QIVLTQSPAIMSASPGEKVTMTCSASSSVSYMYWYQQKPRSSPISWIYLTSNLASGVPARFSGSGSGTSYSLTISSMEAEDAATYYCQQWSSDPLTFGAGTKLELK

Columns and labels:
[1] = target: recombinant cynomolgus monkey B7-H3 (cynomolgus monkey (Macaca fascicularis)); assay: ELISA, whole antibody on plate bound recombinant protein (FIG. 5B)
[2] = target: recombinant cynomolgus monkey B7-H3 (cynomolgus monkey (Macaca fascicularis)); assay: binding ELISA with immobilised recombinant protein (FIG. 28C)

Binder	binding [1]	binding [2]
B1	binds	binds
B2	binds	–
